Results are given in words; binding and its absence hold for the method and conditions named. Binding seen in cells or lysates may run through a third protein. A yes stands for co-enrichment or nearness to the bait. Other partners may have been found.
B1: lipoma preferred partner (endogenous, Can 10 cells) (protein, UniProt Q5XI07 1-632)
chain: MSHPSWLPPRSTGEPLGHVPARMETTHSFGTPSISVSTQQPPKKFAPVVAPKPKYNPYKQPGGEGDFLPPPPPPLEDPGTIPSGSGHFPPPPPLDEGAFIVQRGNPGGKTLEERRSSLDAEIDSLTSILADLECSSPYKPRAPPGSSSSIASPPVSTPVTGHKRMVIPQQPPLTATKKSATKPQAIPIPVTPIGTLKPQPQPVPASYSTASTSSRPAFNVQVKSAQPSTHYMTGSSSGQMYGPGSRSYNTQQVPLSAQCPPPTTCAGTDYAYIPPSGQQAESGFGYTSNQGRYFEPFFAACPSYGGRNEADPAYGQQVQPNTWKREPGYAAPGAGNQNQPGMYSVSGPKKTYITDPVSAPCAPPVQPKERLVKNQKVLQNVVDDRVHGLRKSGFPAPMGPPSVPPSFRPEDELEHLTKKMLYDMENPPADDYFGRCARCGENVVGEGTGCTAMDQVFHVDCFTCMVCDIKLRGQPFYAVEKKAYCEPCYINTLEQCSVCSKPIMERILRATGKAYHPHCFTCVMCHRSLDGIPFTVDACGLIHCIEDFHKKFAPRCSVCKEPIMPAPGQEETVRIVALDRDFHVHCYRCEDCGGLLSEGDNQGCYPLDGHILCKSCNSARIRVLTAKASTDL
B2: p190A/ARHGAP35 (endogenous, Can 10 cells) (protein, UniProt P81128 1-1499)
chain: MMMARKQDVRIPTYNISVVGLSGTEKEKGQCGIGKSCLCNRFVRPSADEFHLDHTSVLSTSDFGGRVVNNDHFLYWGEVSRSLEDCVECKMHIVEQTEFIDDQTFQPHRSTALQPYIKRAAATKLASAEKLMYFCTDQLGLEQDFEQKQMPDGKLLVDGFLLGIDVSRGMNRNFDDQLKFVSNLYNQLAKTKKPIVIVLTKCDEGVERYIRDAHTFALSKKNLQVVETSARSNVNVDLAFSTLVQLIDKSRGKTKIIPYFEALKQQSQQIATAKDKYEWLVSRIVKSHNENWLSVSRKMQASPEYQDYVYLEGTQKAKKLFLQHIHRLKHEHIERRRKLYLAALPLAFEALIPNLDEVDHLSCIKAKKLLETKPEFLKWFVVLEETPWDETSHIDNMENERIPFDLMDTVPAEQLYETHLEKLRNERKRAEMRRAFKENLETSPFITPGKPWEEARSFIMNEDFYQWLEESVYMDIYGKHQKQIIDRAKEEFQELLLEYSELFYELELDAKPSKEKMGVIQDVLGEEQRFKALQKLQAERDALILKHIHFVYHPTKETCPSCPACVDAKIEHLISSRFIRPSDRNQKNSLSDPNIDRINLVILGKDGLARELANEIRALCTNDDKYVIDGKMYELSLRPIEGNVRLPVNSFQTPTFQPHGCLCLYNSKESLSYVVESIEKSRESTLGRRDNHLVHLPLTLILVNKRGDTSGETLHSLIQQGQQIASKLQCVFLDPASAGIGYGRNINEKQISQVLKGLLDSKRNLNLVSSTASIKDLADVDLRIVMCLMCGDPFSADDILSPVLQSQTCKSSHCGSSNSVLLELPIGVHKKRIELSVLSYHSSFSIRKSRLVHGYIVFYSAKRKASLAMLRAFLCEVQDIIPIQLVALTDGAIDVLDNDLSREQLTEGEEIAQEIDGRFTSIPCSQPQHKLELFHPFFKDVVEKKNIIEATHMYDNVAEACSTTEEVFNSPRAGSPLCNSNLQDSEEDVEPPSYHLFREDATLPSLSKDHSKFSMELEGNDGLSFIMSNFESKLNNKVPPPVKPKPPVHFEITKDLSYLDQGHREGQRKSMSSSPWMPQDGFDPSDYAEPMDAVVKPRNEEENIYSVPHDSTQGKIITIRNINKAQSNGSGNGSDSEMDTSSLERGRKVSAVSKPVLYRTRCTRLGRFASYRTSFSVGSDDELGPIRKKEEDQASQGYKGDNAVIPYETDEDPRRRNILRSLRRNTKKPKPKPRPSITKATWESNYFGVPLTTVVTPEKPIPIFIERCIEYIEATGLSTEGIYRVSGNKSEMESLQRQFDQDHNLDLAEKDFTVNTVAGAMKSFFSELPDPLVPYSMQIDLVEAHKINDREQKLHALKEVLKKFPKENHEVFKYVISHLNRVSHNNKVNLMTSENLSICFWPTLMRPDFSSMDALTATRSYQTIIELFIQQCPFFFYNRPISEPPGAAPGSPSAMAPTVPFLTSTPATSQPSPPQSPPPTPQSPMQPLLSSQLQAEHTL

Sequences of proteins named here, by UniProt entry; tags and fusion partners are left off. A change or cut given only in a name is not applied to a line headed by its entry.
UniProt Q9Z1Y3: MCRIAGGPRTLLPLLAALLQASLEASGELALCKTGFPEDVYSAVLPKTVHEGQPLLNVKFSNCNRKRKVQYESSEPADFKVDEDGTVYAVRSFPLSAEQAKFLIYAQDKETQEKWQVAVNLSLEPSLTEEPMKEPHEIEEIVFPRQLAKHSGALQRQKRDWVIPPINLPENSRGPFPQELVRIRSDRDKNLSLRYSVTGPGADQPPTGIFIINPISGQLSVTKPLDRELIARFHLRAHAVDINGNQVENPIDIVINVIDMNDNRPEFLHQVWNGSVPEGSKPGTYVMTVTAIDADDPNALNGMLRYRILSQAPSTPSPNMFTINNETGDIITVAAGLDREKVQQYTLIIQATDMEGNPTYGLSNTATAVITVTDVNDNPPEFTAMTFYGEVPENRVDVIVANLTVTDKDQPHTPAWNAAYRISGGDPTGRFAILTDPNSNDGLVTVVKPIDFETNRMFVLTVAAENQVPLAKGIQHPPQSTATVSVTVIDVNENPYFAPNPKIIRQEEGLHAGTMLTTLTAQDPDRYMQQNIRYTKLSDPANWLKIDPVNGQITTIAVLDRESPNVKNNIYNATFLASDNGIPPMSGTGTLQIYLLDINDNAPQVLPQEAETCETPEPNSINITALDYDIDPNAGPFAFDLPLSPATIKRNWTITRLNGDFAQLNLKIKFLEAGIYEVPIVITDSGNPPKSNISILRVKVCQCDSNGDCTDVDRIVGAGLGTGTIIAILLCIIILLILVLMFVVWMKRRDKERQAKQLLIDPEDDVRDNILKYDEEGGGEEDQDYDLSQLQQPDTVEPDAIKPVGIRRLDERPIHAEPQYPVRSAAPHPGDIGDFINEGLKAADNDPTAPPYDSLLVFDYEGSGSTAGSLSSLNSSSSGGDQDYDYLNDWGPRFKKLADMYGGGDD
UniProt Q9WU82: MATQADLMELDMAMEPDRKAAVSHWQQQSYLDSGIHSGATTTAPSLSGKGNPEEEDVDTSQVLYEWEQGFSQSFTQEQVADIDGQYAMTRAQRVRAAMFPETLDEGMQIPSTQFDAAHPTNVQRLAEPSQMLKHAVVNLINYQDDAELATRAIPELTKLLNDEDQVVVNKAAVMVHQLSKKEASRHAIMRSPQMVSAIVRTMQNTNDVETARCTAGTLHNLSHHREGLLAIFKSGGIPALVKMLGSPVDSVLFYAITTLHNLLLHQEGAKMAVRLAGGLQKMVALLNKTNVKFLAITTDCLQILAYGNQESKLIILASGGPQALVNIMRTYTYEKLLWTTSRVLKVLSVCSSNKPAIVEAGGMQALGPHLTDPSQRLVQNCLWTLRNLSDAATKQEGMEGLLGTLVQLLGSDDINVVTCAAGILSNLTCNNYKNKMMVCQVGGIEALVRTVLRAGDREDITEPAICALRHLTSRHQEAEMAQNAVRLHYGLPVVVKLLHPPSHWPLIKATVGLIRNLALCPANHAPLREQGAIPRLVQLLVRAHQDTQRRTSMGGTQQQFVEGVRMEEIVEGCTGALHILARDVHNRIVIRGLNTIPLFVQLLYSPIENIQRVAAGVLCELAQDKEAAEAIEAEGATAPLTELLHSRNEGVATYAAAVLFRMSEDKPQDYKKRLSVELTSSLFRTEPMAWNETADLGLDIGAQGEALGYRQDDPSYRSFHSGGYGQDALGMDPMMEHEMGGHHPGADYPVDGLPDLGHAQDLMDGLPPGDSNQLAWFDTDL
UniProt Q9R0T4: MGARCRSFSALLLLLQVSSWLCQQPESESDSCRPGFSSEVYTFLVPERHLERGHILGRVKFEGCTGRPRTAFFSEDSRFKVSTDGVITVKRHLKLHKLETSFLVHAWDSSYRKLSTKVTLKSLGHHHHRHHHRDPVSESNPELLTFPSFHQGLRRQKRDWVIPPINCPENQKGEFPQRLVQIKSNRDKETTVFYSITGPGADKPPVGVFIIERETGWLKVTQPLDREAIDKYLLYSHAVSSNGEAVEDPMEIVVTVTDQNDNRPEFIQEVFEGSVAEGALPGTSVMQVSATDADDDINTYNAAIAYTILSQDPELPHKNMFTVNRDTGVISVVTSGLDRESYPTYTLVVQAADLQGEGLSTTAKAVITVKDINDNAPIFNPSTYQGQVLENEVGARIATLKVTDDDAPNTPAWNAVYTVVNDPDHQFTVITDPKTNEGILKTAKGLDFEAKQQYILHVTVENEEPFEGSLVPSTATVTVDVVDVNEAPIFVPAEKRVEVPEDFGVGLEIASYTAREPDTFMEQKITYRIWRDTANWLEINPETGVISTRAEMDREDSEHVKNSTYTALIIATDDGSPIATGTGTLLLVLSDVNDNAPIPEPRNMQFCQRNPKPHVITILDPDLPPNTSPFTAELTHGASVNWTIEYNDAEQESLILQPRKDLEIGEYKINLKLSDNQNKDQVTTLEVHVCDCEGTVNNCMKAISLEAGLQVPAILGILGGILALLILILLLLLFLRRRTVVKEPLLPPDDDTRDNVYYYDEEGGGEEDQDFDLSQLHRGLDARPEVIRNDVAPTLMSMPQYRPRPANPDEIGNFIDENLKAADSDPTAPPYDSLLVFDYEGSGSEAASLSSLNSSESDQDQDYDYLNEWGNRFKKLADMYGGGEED
UniProt A0A0G2JXT9: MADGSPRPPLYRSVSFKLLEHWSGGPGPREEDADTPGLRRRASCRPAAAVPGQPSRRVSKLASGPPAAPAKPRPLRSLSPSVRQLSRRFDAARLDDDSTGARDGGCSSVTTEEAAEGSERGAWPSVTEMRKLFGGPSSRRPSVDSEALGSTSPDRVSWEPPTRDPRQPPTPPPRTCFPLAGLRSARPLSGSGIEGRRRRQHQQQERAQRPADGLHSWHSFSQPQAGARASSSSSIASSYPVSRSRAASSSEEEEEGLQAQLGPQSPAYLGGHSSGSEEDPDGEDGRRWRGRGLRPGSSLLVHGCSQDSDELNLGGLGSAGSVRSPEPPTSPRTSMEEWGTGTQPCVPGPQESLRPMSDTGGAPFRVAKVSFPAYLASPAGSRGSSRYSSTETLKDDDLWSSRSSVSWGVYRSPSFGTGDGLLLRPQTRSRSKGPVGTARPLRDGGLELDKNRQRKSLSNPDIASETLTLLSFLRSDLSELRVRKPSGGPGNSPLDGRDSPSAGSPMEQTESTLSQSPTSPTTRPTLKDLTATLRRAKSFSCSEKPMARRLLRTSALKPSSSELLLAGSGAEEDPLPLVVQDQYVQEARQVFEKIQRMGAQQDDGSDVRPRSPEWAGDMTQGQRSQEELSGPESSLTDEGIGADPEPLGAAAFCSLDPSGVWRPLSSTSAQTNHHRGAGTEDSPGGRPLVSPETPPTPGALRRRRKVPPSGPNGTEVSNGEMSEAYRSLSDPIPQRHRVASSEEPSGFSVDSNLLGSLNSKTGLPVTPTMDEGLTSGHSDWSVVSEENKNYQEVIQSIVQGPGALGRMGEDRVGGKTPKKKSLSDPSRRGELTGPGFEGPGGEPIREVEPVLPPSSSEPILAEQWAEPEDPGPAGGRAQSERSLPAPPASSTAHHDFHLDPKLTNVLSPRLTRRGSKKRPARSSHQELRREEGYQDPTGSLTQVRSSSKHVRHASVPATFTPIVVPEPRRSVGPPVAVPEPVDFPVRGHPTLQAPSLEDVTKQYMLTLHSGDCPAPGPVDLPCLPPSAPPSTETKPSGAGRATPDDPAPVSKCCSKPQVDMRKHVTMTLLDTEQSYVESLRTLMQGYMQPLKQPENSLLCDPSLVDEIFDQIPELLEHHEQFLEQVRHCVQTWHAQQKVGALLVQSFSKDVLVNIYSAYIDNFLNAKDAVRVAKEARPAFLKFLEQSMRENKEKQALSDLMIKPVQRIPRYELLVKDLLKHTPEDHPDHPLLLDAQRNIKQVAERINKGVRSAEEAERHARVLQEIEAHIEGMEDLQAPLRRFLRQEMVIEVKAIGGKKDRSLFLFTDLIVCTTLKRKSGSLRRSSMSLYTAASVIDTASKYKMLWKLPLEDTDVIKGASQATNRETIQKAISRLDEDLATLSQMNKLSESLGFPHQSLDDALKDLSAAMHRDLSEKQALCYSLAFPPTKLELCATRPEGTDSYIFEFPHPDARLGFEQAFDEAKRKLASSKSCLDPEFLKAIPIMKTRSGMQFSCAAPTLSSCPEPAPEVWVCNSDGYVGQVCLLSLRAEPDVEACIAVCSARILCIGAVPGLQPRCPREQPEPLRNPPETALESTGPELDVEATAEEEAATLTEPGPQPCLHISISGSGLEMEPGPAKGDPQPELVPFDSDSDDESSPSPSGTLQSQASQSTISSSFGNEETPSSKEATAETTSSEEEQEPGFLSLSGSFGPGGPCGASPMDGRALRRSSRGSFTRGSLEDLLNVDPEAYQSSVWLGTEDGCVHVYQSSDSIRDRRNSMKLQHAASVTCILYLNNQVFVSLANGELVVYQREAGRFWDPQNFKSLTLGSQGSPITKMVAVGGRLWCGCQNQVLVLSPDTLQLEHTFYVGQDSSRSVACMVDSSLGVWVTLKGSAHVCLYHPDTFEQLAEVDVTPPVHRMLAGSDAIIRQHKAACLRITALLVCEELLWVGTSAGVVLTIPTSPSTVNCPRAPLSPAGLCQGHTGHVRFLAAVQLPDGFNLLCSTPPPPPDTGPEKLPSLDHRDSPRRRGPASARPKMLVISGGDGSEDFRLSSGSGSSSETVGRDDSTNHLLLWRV
UniProt Q62868: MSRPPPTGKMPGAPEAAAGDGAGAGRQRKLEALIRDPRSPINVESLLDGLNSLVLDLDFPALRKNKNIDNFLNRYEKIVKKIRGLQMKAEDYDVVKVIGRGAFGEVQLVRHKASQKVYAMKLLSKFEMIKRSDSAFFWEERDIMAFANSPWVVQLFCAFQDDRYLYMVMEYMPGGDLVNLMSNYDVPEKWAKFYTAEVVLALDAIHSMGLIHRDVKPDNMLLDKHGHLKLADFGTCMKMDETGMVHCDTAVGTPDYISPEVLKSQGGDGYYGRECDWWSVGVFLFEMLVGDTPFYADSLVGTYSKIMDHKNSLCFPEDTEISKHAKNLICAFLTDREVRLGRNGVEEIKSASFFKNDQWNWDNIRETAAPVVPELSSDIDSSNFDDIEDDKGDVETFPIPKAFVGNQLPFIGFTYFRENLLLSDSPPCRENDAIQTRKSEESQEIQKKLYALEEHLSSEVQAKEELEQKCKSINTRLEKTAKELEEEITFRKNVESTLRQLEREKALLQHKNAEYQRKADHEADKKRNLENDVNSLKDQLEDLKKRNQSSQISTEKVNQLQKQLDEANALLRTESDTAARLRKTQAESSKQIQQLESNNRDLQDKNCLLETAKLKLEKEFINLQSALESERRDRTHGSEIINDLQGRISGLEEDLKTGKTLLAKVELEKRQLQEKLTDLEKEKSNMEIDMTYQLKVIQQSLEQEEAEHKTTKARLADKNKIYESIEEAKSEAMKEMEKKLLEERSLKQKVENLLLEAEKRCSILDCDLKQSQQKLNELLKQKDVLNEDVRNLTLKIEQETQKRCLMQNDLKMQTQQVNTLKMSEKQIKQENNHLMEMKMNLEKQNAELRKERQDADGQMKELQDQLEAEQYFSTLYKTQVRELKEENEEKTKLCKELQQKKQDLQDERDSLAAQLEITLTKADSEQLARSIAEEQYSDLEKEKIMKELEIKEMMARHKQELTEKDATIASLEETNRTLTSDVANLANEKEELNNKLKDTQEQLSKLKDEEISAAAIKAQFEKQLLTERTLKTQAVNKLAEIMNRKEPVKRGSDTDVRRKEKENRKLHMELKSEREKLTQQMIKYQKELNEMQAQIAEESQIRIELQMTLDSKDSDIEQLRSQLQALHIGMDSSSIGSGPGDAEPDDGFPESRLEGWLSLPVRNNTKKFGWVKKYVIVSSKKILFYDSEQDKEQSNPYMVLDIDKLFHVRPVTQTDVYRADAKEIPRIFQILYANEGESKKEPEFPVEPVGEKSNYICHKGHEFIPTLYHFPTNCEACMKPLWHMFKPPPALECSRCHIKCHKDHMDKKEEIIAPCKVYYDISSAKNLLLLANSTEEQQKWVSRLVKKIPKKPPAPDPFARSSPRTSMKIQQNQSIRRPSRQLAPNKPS

biological target: TurboID-tagged N-cadherin (rat) (UniProt Q9Z1Y3); assay: proximity labelling; BioID: Can 10 cells expressing TurboID-tagged E- or N-cadherin, 50 µM biotin 16 h at 37°C, RIPA lysate, streptavidin magnetic beads, LC-MS/MS; controls biotin(−) and untransfected cells

Row | binding | Molecule
1 | binds | β-catenin (endogenous, Can 10 cells) (from UniProt Q9WU82 1-781)
2 | binds | B1
3 | binds | B2

biological target: TurboID-tagged E-cadherin (rat) (UniProt Q9R0T4); assay: as above

Row | binding | Molecule
4 | binds | ARHGEF17 (endogenous, Can 10 cells) (from UniProt A0A0G2JXT9)
5 | binds | ROCK2 (endogenous, Can 10 cells) (from UniProt Q62868 1-1388) (enzyme)
6 | binds | B1
